The assay deals with C57BL/6J mice. Conditions: mouse, in vivo.

`N=C(N)NCCN1CCCCCCC1` [guanethidine]: the “effect on hair greying upon RTX injection” value is given as “suppressed hair greying”.
